# Results reported in the supplement of paper PMC12889115.
# The other results are listed elsewhere or left out. Values are raw readings; no control value is given beside them.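 First-pass screen: polymyxin B was added at a level that permeabilizes the Salmonella outer membrane while sparing the inner membrane. DMSO wells, with and without polymyxin B, defined maximum growth. Because plates differed from one another, each plate's data were ranked separately and the compounds with the lowest OD600 were carried forward as hits.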
# System: Salmonella enterica serovar Typhimurium SL1344
# Experiment: bacterial growth OD600 after 18 h with compound and polymyxin B; higher = more bacterial growth (less inhibition)
# Settings: 50 µM, Mueller-Hinton broth
SMILES,bacterial growth OD600 (polymyxin B 0.75 µg/mL),bacterial growth OD600 (polymyxin B 1 µg/mL)
CCC1CN(CC(=O)NC(C)COC)Cc2cc(OC)ccc2O1 (stereo not drawn),0.983,–
CCCCn1c(CN(C)Cc2ccc(C)o2)cnc1S(=O)(=O)CC1CCC1,–,0.289
COc1ccc(CC(=O)NCC2CCCN(Cc3cc(OC)cc(OC)c3)C2)cc1 (stereo not drawn),0.809,–
COc1cccc(CN2C(=O)NC(C)(C3CCN(C(=O)/C=C/C(C)C)CC3)C2=O)c1OC (stereo not drawn),0.946,–
COCCC(=O)N1CCC(Oc2ccc(C(=O)NC3CCOC(C)(C)C3)cc2)CC1 (stereo not drawn),–,1.01
CCCn1c(C)c(CC(=O)NC2CCC2)c2c1CC(C)(C)CC2=O,–,0.846
COc1ccc(NC2CCCN(Cc3ccccc3OC(F)F)C2)cc1OC (stereo not drawn),0.759,–
CC(=O)N1CCCN(C(=O)CC(c2ccccc2)c2ccc(Cl)cc2)CC1 (stereo not drawn),–,0.805

# Record cards, from the list above. Order of values: bacterial growth OD600 (polymyxin B 0.75 µg/mL) | bacterial growth OD600 (polymyxin B 1 µg/mL)
# CCCCn1c(CN(C)Cc2ccc(C)o2)cnc1S(=O)(=O)CC1CCC1 is listed as – | 0.289
# CCC1CN(CC(=O)NC(C)COC)Cc2cc(OC)ccc2O1 (stereo not drawn) is listed as 0.983 | –
